The labels stand for the following.
B1: ATL3, endogenous (protein, UniProt Q6DD88 1-541)
chain: MLSPQRVAAAASRGADDAMESSKPGPVQVVLVQKDQHSFELDEKALASILLQDHIRDLDVVVVSVAGAFRKGKSFILDFMLRYLYSQKESGHSNWLGDPEEPLTGFSWRGGSDPETTGIQIWSEVFTVEKPGGKKVAVVLMDTQGAFDSQSTVKDCATIFALSTMTSSVQIYNLSQNIQEDDLQQLQLFTEYGRLAMDEIFQKPFQTLMFLVRDWSFPYEYSYGLQGGMAFLDKRLQVKEHQHEEIQNVRNHIHSCFSDVTCFLLPHPGLQVATSPDFDGKLKDIAGEFKEQLQALIPYVLNPSKLMEKEINGSKVTCRGLLEYFKAYIKIYQGEDLPHPKSMLQATAEANNLAAAASAKDIYYNNMEEVCGGEKPYLSPDILEEKHCEFKQLALDHFKKTKKMGGKDFSFRYQQELEEEIKELYENFCKHNGSKNVFSTFRTPAVLFTGIVALYIASGLTGFIGLEVVAQLFNCMVGLLLIALLTWGYIRYSGQYRELGGAIDFGAAYVLEQASSHIGNSTQATVRDAVVGRPSMDKKAQ
B2: RETREG2, endogenous (protein, UniProt Q8NC44 1-543)
chain: MASGGGGGNTGAGGGPGMGLSLGLGLGLSLGMSEATSEAEEEAATAEAVGRLATTLWLRLRGWEAVLAAAQRLLVWEKPLHSLVTAAALNGLFWLLSSSSLRPFFLLSVSLLAYFLLDLWQPRFLPDVSASSPEEPHSDSEGAGSGARPHLLSVPELCRYLAESWLTFQIHLQELLQYKRQNPAQFCVRVCSGCAVLAVLGHYVPGIMISYIVLLSILLWPLVVYHELIQRMYTRLEPLLMQLDYSMKAEANALHHKHDKRKRQGKNAPPGGDEPLAETESESEAELAGFSPVVDVKKTALALAITDSELSDEEASILESGGFSVSRATTPQLTDVSEDLDQQSLPSEPEETLSRDLGEGEEGELAPPEDLLGRPQALSRQALDSEEEEEDVAAKETLLRLSSPLHFVNTHFNGAGSPPDGVKCSPGGPVETLSPETVSGGLTALPGTLSPPLCLVGSDPAPSPSILPPVPQDSPQPLPAPEEEEALTTEDFELLDQGELEQLNAELGLEPETPPKPPDAPPLGPDIHSLVQSDQEAQAVAEP

By UniProt entry, the sequences of proteins in these tests, tags left out. Where a name states a change or a piece, a line headed by the entry shows the natural chain unless it says otherwise.
UniProt Q86VE9: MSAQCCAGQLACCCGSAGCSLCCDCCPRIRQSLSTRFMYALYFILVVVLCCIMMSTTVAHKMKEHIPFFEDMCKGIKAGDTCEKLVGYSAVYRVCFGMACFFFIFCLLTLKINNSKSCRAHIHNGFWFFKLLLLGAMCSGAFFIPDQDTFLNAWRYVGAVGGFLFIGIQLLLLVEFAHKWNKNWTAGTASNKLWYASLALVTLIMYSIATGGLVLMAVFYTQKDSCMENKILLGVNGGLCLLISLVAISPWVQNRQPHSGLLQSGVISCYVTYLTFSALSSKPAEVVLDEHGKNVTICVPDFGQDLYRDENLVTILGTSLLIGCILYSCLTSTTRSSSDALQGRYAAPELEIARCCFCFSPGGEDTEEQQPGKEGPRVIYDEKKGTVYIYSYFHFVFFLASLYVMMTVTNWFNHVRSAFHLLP
UniProt Q9Y6I9: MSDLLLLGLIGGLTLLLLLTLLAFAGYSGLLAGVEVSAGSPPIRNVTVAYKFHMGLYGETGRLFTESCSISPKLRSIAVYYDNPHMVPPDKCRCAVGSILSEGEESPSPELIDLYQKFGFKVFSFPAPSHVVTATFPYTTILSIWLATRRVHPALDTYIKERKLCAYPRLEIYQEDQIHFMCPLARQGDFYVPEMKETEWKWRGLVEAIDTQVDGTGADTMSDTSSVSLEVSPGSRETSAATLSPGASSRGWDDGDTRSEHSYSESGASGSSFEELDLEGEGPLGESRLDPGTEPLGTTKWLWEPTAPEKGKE

These are yes or no findings as the source states them, for the method shown. Binding seen in cells or lysates may run through a third protein. These calls come from enrichment with a bait or labelling near it, and not all partners need be listed.

The experiment concerns the target Serine incorporator 5 (SERINC5) with a FLAG-tag (human) (UniProt Q86VE9). In words: affinity purification with mass spectrometry; Ser5-FLAG, Nef-HA and glycoGag-HA expressed in HEK293T cells (5 samples); RIPA lysis; anti-FLAG M2 magnetic beads or anti-HA affinity gel 24 hrs at 4°C, washed with PBS five times; SDS-PAGE, Nano LC-MS/MS.
Regarding “RETREG3, endogenous (from UniProt Q86VR2-1 1-466)”, the binding entry is listed as “binds”.

Take “TEX264, endogenous (from UniProt Q9Y6I9 1-313)”: the binding entry is listed as “binds”.

Consider B1, for which the binding result is “binds”.

On to B2, for which the binding entry is listed as “binds”.

For the origin of these results see article PMC12530543.
